# Experimental data reported in PubChem BioAssay AID493014 (National Center for Advancing Translational Sciences (NCATS), 2011).
# The other results are listed elsewhere or left out. The main result of the screen is listed elsewhere. These columns were measured beside it and carry no call. Compounds called inactive in the main read-out are mostly missing here. Potencies come from curve fits of mixed quality, noted in brackets.
# Test: qHTS Assay to Find Inhibitors of Chronic Active B-Cell Receptor Signaling
# Details: ABC-DLBCL IkBa-CBG/CBR reporter, luminescence ratio (green luciferase fused to IkBa over red control in TMD8 lymphoma cells), 4 h
# Procedure, shortened: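 Compounds up to 46 uM were incubated four hours with TMD8 cells whose green CBG68 luciferase is fused to IkappaBalpha; red CBR luminescence normalised the signal, and concentration-effect curves were fitted to fusion, red and ratio data.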
# [1] = measured here: CBR red luminescence, cell number
# [2] = measured here: IkBa-CBG green luminescence
SMILES,AC50 [1],AC50 [2]
CC[C@]12c3[nH]c4ccc(Cl)cc4c3CCN1C(=O)[C@@H](CC(=O)NCC13CC4CC(CC(C4)C1)C3)C[C@@H]2C(=O)N1CCN(C(=O)C2CC2)CC1,"8.2 µM [falling, partial curve]",–
COc1ccc(NC(=O)Cn2c(CCC(=O)O)ccc2-c2ccccc2)cc1,"14.1 µM [rising, single point]",–
O=C(NCCc1ccc(Cl)cc1Cl)c1cncc(Br)c1,"35.5 µM [falling, single point]",–
COc1cccc(NS(=O)(=O)c2ccc(Br)s2)c1,"6.31 µM [falling, partial curve, poor fit]",–
O=C(c1ccc(-n2c(SCc3cc(F)ccc3F)nc3ccccc3c2=O)cc1)N1CCOCC1,"1.3 µM [rising, full curve, poor fit]",–
CCOC(=O)CN1C(=N)N(c2nc(NC(C)C)nc(OC)n2)CC1=O,"7.94 µM [falling, partial curve, poor fit]",–
Cc1ccc(/C(C#N)=C\c2ccc(N3CCOCC3)o2)cc1,"18.4 µM [falling, partial curve, poor fit]","6.51 µM [falling, partial curve, poor fit]"
C#CCOCCOCCOCCNc1nc(N2CCN(C(=O)CCCCCCCCCCNC(=O)Cn3cc(C[C@@H](C)O)nn3)CC2)nc(N2CCN(C(=O)CCCCCCCCCCNC(=O)[C@H](CCCN=C(N)N)n3cc(C[C@@H](C)CC)nn3)CC2)n1,"3.66 µM [rising, partial curve, poor fit]",–
COc1ccc(CCNC(=O)C(=O)c2c(C)n(C)c3ccccc23)cc1OC,"20 µM [rising, partial curve, poor fit]","14.1 µM [falling, partial curve]"
Cc1ccccc1NC(=O)COc1ccc2oc(=O)cc(C)c2c1,"15.8 µM [falling, partial curve]",–
COc1ccc(C(=O)/C=C/c2cc(OC)c(O)c(OC)c2)c(F)c1,"14.6 µM [falling, single point]",–
CCn1nc(C)c(/C=N\NC(=O)c2cccc(OC)c2)c1C,"8.2 µM [falling, partial curve]",–
CC(=O)Nc1ccc2c(CSc3nnc(N)s3)cc(=O)oc2c1,"35.5 µM [falling, single point]",–
O=C(N/N=C/c1cccc2ccccc12)c1cccs1,"35.5 µM [falling, single point]",–
Cc1ccccc1C(=O)c1cccn1CC(=O)NCCN1CCN(c2cccc(C)c2C)CC1,"0.058 µM [rising, full curve, poor fit]",–
N#Cc1ccc(OCc2nnc(-c3ccc([N+](=O)[O-])cc3)o2)cc1,"0.794 µM [rising, full curve, poor fit]",–
CCCCSc1nnc(-c2ccc(C)cc2)o1,"0.116 µM [rising, full curve, poor fit]",–
COC(=O)C1CCN(C(=O)/C=C/c2ccccc2)CC1,"3.66 µM [falling, partial curve]",–
CCN(Cc1ccncc1)C(=O)c1ccc(C)o1,"3.16 µM [rising, full curve, poor fit]",–
CN(C)C(=O)CSc1ncccc1-c1nc2ccccc2[nH]1,"4.47 µM [falling, partial curve]",–
COc1ccc(CCNC(=O)CCc2ccc(S(=O)(=O)NC(C)C)cc2)cc1OC,"29.1 µM [rising, single point]",–

SMILES,AC50 [1],AC50 [2]
CC(C)CC(NC(=O)CCl)c1ccccc1 (configuration not stated),"18.4 µM [falling, single point]",–
O=C(NCC1CCCO1)c1cc2c([nH]c3ccccc32)c(-c2ccc(F)cc2)n1 (configuration not stated),"7.08 µM [falling, partial curve, poor fit]",–
CC(=O)Nc1ccc(S(=O)(=O)N2CCN(Cc3cccnc3)CC2)cc1,"7.31 µM [falling, single point]",–
CCS(=O)(=O)c1ccc2oc(SCC(=O)NC34CC5CC(CC(C5)C3)C4)nc2c1,"0.0731 µM [falling, full curve, poor fit]",–
O=C(COC(=O)c1ccc(O)cc1)c1ccc2c(c1)OCCO2,"13 µM [falling, partial curve]",–
Cc1cccc(CN(CC(=O)N/N=C/c2cccs2)S(=O)(=O)c2ccc(Cl)cc2)c1,"3.55 µM [falling, partial curve, poor fit]",–
CC(=O)n1cc(N(C(=O)CCl)c2ccc([N+](=O)[O-])cc2)c2ccccc21,"7.08 µM [falling, partial curve]","10 µM [rising, partial curve, poor fit]"
Cn1nnnc1SCC(=O)N1CCc2ccccc2C1,"3.98 µM [rising, single point]",–
C=CCNc1oc(-c2cccs2)nc1C#N,"11.6 µM [rising, partial curve, poor fit]",–
CSc1nnc(Nc2ccccc2C)s1,"14.6 µM [falling, partial curve, poor fit]",–
NNC(=O)c1ccc(COc2ccc3ccccc3c2)o1,"7.08 µM [falling, full curve]",–
Cc1cc(Cl)cc(Cl)c1OCCCCN(C)C,"18.4 µM [falling, single point]",–
O=S(=O)(NCc1cccs1)c1cccc2cccnc12,"35.5 µM [rising, partial curve, poor fit]",–
COC(=O)c1cc(C)nc(N)c1C#N,"5.8 µM [falling, full curve, poor fit]",–
c1ccc(Nc2nnc(-c3cccc4ccccc34)o2)cc1,"3.16 µM [falling, full curve]",–
COc1ccc(N(CC(=O)Nc2cccc(C)c2)S(=O)(=O)c2ccc(C)cc2)cc1OC,"2.51 µM [rising, partial curve]",–
CC1Sc2ccc(S(=O)(=O)NCCc3ccc(Cl)cc3)cc2NC1=O (configuration not stated),"31.6 µM [falling, single point]","35.5 µM [rising, partial curve, poor fit]"
O=C(Nc1ccccc1C(=O)O)c1cccc(C(=O)Nc2ccccc2C(=O)O)c1,"2.51 µM [falling, full curve]",–
CC(C)c1ccc2[nH]c3c(c2c1)CCCC3=O,"11.2 µM [rising, partial curve]",–
COCCn1c(=NC(=O)c2cc(-c3cccs3)nc3ccccc23)sc2cc(S(N)(=O)=O)ccc21,"8.2 µM [falling, partial curve]",–
N#Cc1c(N2CCCCC2)nc(N)c2c(N)nc(SCC(=O)O)cc12,"10 µM [falling, partial curve]","11.2 µM [rising, single point]"

SMILES,AC50 [1],AC50 [2]
O=C(O)CCN1C(=O)/C(=C\c2ccc(-c3nc4ccccc4s3)o2)SC1=S,"0.651 µM [falling, full curve, poor fit]",–
CC(C)c1ccc(Nc2nc(Cl)nc(NCc3ccco3)n2)cc1,"31.6 µM [rising, single point]",–
CC(C)Cc1c(O)nc(SCC(=O)Nc2ccc3c(c2)CCC3)[nH]c1=O,"7.31 µM [rising, partial curve, poor fit]",–
Cc1nc(N2CCOCC2)nc2c1CCCC2,"25.9 µM [rising, single point]",–
NC(=O)C1CCN(C(c2ccccc2Cl)c2nnnn2CC2CCCO2)CC1 (configuration not stated),"2.82 µM [rising, partial curve, poor fit]",–
O=C(NCc1ccccn1)C(=O)NCC1OCCN1S(=O)(=O)c1ccc(Cl)cc1 (configuration not stated),"10 µM [rising, partial curve, poor fit]",–
Cc1ccc(N=Nc2c(O)[nH]c3ccc(F)cc23)cc1,"2 µM [rising, partial curve]",–
CCOc1cc(C(=O)OCC(=O)c2cc(C)n(CC3CCCO3)c2C)ccc1OCC(=O)N1CCOCC1 (configuration not stated),"0.1 µM [rising, full curve, poor fit]",–
Nc1nc2c(s1)CCc1c-2cnn1-c1ccccc1,"0.501 µM [rising, full curve]",–
COc1c(Cl)cnn(-c2ccc(Cl)c(Cl)c2)c1=O,"12.6 µM [falling, single point]",–
CCOC(=O)c1cccc(NC(=O)C2CCCN2S(=O)(=O)c2cccc3cccnc23)c1 (configuration not stated),"2.31 µM [rising, full curve, poor fit]",–
c1ccc(Oc2nc(Oc3ccccc3)nc(N3CCOCC3)n2)cc1,"9.2 µM [rising, partial curve]",–
Cc1csc(NC(=O)c2c(O)c3c(n(CC(C)C)c2=O)CCCC3)n1,"20.6 µM [falling, partial curve, poor fit]",–
COc1cc2nc(NC(=O)c3ccccc3)[nH]c(=O)c2cc1OC,"0.092 µM [falling, full curve]",–
O=[N+]([O-])c1ccc(NNC(=S)Nc2ccccc2)cc1,"0.103 µM [falling, full curve, poor fit]",–
CCCC1=Nc2cc(C(=O)NCc3ccco3)ccc2Sc2ccccc21,"18.4 µM [rising, single point]","23.1 µM [falling, single point]"
CSc1ncc(Cl)c(C(=O)Nc2ccc(S(=O)(=O)Nc3nccc(C)n3)cc2)n1,"15.8 µM [falling, single point]",–
CCCCN(C)CCCNC(=O)CN1N=C(c2ccc(OC)cc2)CCC1=O,"35.5 µM [falling, partial curve, poor fit]",–
Fc1cc(F)cc(NC(=S)N2CCN(c3ncccn3)CC2)c1,"35.5 µM [rising, single point]",–

# 4 neighbouring entries from above:
SMILES,AC50 [1],AC50 [2]
O=[N+]([O-])c1ccc(NNC(=S)Nc2ccccc2)cc1,"0.103 µM [falling, full curve, poor fit]",–
CCCC1=Nc2cc(C(=O)NCc3ccco3)ccc2Sc2ccccc21,"18.4 µM [rising, single point]","23.1 µM [falling, single point]"
CSc1ncc(Cl)c(C(=O)Nc2ccc(S(=O)(=O)Nc3nccc(C)n3)cc2)n1,"15.8 µM [falling, single point]",–
CCCCN(C)CCCNC(=O)CN1N=C(c2ccc(OC)cc2)CCC1=O,"35.5 µM [falling, partial curve, poor fit]",–
